No constants are given. Whether binding was seen depends on the method and setting. Binding seen in cells or lysates may run through a third protein. Some results given as binding are weak or reduced against the parent protein; the word gives no strength. Where a sequence is shown, tags or fusion partners need not be part of it.
T1: GFP-MIP, expressed in HCT116-p53+/+ cells
T1 sequence: PRFWEYWLRLME

By UniProt entry, the sequences of proteins in these tests, tags left out. Where a name states a change or a piece, a line headed by the entry shows the natural chain unless it says otherwise. Chains listed by the source or under a name are the forms on record and can include a tag or linker. Residues count along the entry.
UniProt Q00987: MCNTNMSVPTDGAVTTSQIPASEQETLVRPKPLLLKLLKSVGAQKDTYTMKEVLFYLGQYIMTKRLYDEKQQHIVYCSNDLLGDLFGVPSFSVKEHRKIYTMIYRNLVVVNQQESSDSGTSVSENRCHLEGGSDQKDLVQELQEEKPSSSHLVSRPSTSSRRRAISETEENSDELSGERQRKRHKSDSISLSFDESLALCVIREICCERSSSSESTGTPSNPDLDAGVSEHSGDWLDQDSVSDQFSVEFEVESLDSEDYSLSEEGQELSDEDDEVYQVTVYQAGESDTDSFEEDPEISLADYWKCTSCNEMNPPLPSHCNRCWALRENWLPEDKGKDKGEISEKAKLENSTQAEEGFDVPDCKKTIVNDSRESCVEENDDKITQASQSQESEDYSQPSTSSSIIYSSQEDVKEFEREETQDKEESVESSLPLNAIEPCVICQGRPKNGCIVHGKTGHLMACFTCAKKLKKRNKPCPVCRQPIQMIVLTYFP
MDM2_(7–300) fused to the TAP tag (human (A549 cell-derived cDNA library)): residues 7-300 of Q00987

T2: MIP fused to a FLAG-tagged thioredoxin scaffold protein (Ad-MIP)
T2 sequence: PRFWEYWLRLME

T3: 3A fused to a FLAG-tagged thioredoxin scaffold protein (Ad-3A)
T3 sequence: LTAEHYAAQATS

B1: MIP (MDM2 Inhibitory Peptide), synthetic peptide (peptide)
peptide: PRFWEYWLRLME
notes: 12-mer selected by mRNA display from a partially randomized library; also called X12-1; source: synthetic peptide

Key:
[1] = target: T1, GFP-MIP, expressed in HCT116-p53+/+ cells; assay: co-IP; HCT116-p53+/+ cells transfected with GFP-fusion plasmids, 24 h; lysis in TNE buffer (10 mM Tris-HCl pH 7.8, 150 mM NaCl, 1 mM EDTA, 1% NP-40); anti-GFP agarose 2 h at 4°C; western blot with anti-MDM2
[2] = target: T2, MIP fused to a FLAG-tagged thioredoxin scaffold protein (Ad-MIP); assay: co-IP; HCT116-p53+/+ cells infected with 400 MOI of Ad-3A, DI or MIP and 8 MOI of Ad-Cre, 48 h; immunoprecipitation with anti-FLAG antibody; western blot with anti-MDM2 or anti-FLAG
[3] = target: T3, 3A fused to a FLAG-tagged thioredoxin scaffold protein (Ad-3A); assay: as above
[4] = target: MDM2_(7–300) fused to the TAP tag (human (A549 cell-derived cDNA library)) (UniProt Q00987); assay: pull-down; in vitro translated GFP-tagged peptide incubated with TAP-tagged MDM2 immobilized on IgG beads, 1 h at 4°C; washed three times with IPP150 (10 mM Tris-HCl pH 8.0, 150 mM NaCl, 0.1% NP-40); GFP fluorescence on SDS-PAGE gel; only the target purified

Row | Molecule | binding [1] | binding [2] | binding [3] | binding [4]
1 | MDM2, endogenous in HCT116-p53+/+ cells (from UniProt Q00987 1-491) | binds | binds | no binding | –
2 | B1 | – | – | – | binds

Source: publication PMC3057987 (PLoS ONE, 2011)
